Data taken from ChEMBL document CHEMBL3988442, “University of Dundee, Small-Polar-MMV Screening Library” (2021).

Sequences of proteins named here, by UniProt entry; tags and fusion partners are left off. Residues count along the entry.
UniProt P9WFT3, whole entry: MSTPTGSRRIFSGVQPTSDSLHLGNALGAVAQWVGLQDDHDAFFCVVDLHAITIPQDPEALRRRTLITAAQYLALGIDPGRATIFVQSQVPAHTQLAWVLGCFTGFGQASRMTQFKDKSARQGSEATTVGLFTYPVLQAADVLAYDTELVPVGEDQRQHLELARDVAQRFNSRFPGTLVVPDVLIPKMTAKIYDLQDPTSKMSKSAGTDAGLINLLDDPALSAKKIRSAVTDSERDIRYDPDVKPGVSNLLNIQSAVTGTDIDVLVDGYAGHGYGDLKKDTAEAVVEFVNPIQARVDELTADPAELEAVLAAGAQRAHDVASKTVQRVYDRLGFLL
UniProt Q4DA54, 1-478: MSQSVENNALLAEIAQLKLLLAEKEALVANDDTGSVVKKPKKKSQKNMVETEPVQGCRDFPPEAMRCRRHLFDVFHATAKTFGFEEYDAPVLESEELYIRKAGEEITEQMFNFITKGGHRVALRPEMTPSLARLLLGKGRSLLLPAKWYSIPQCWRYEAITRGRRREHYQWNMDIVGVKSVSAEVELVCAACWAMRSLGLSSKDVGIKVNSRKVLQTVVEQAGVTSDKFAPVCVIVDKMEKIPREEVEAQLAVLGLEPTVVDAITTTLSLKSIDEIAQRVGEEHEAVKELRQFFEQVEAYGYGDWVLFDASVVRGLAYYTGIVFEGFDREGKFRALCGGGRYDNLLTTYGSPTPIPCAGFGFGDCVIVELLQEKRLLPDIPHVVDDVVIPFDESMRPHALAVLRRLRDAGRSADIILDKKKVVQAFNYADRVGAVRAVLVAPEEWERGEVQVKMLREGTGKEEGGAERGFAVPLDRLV

A: 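Enzyme assay of tryptophanyl-tRNA synthetase; the read-out is not stated. Target: Tryptophan-tRNA ligase, Mycobacterium tuberculosis (UniProt P9WFT3). Compounds at 10 µM. Direction is not recorded; retested compounds ran higher, which suggests that high means inhibition. Size under these conditions: about 65,000 compounds, about 64 of them at 50% or above in at least one test.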
B: 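Cell assay of Leishmania donovani living inside macrophages; the read-out is not stated. Concentration: 30 µM. Higher reads as stronger inhibition (inferred: compounds with an IC50 in retests scored well above the rest). About 69,000 compounds were tested under these conditions; 1.5% (about 1,000) showed 50% or more at least once.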
C: 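Enzyme assay of histidyl-tRNA synthetase; the read-out is not stated. Target: Histidine-tRNA ligase, Trypanosoma cruzi CL Brener (UniProt Q4DA54). Tested at 30 µM. Direction is inferred from retests: higher values go with stronger inhibition. Size under these conditions: about 69,000 compounds, about 31 of them at 50% or above in at least one test.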

Results are given as percent effect.
The controls that fix the scale are not given in the record; negative values are as filed.
Compounds were drawn at random from those tested, without regard to their results.
Two or more numbers in one place are separate tests of the same structure; such repeats can differ widely.
A dash means the value is not listed here; it may have been measured.

Compound	A	B	C
O=C(c1cocn1)N1CCC2(CC1)CC(Oc1ccccn1)CO2 (stereo not given)	-3.843	-	2.299
CN1N=C(C(=O)N2CCCC(n3ccnc3)C2)CCC1=O (stereo not given)	15.4	19.69	2.616
COc1ccc2cc(C3CN(C(=O)CCNC(C)=O)CCO3)ccc2c1 (stereo not given)	-2.473	-35.59	4.167
Cc1cc(O)ccc1-c1cc(-c2cnn(C)c2C2CC2)c(C#N)c(N)n1	-2.21	29.52	0.431
COCc1cc(N(C)Cc2ncnn2C)nc(C(C)(C)C)n1	4.907	31.12	0.4926
CCSCCC(=O)NS(=O)(=O)c1ccc2c(c1)OCCO2	-0.3712	14.98	3.817
[H][C@@]12CN(c3ccc(C)nn3)C[C@H](C(=O)N3CCOCC3)[C@]1([H])CCO2	-	10.85	-
Cc1ncsc1CN1C[C@@H]2COC[C@]2(C(=O)NCc2cccnc2)C1	-0.834	-	9.184
COCCNC(=O)[C@H]1C[C@@H]2CCN(c3ccccc3)C[C@H]2O1	6.987	-	2.804
CN(C)Cc1ccc(C(=O)N2CCCC(COc3ccc(F)cc3)C2)o1 (stereo not given)	-0.4989	-17.79	6.087
Cc1cccc(-c2c[nH]c(C3CCCN3C(=O)C3CCOCC3)n2)c1 (stereo not given)	3.204	11.74	0
CN(Cc1ccco1)C1CCC12CCN(C(=O)c1ccncc1)CC2 (stereo not given)	-4.446	0.763	5.825
Cc1noc(C)c1C(=O)N1CCC2(CC1)c1nc[nH]c1CCN2C	6.56	6.783	6.383
O=C(O)C(F)(F)F.[H][C@@]12CCCO[C@]1([H])[C@H](Oc1ccccn1)CN2S(=O)(=O)CC	-	-37.27 and -29.28	-
COc1ccccc1C1(O)CCCN(C(=O)c2csc(C(C)=O)c2)C1 (stereo not given)	0.8832	40.01	5.385
CC(C#N)CSc1ccccc1NCC(=O)NCc1cccs1 (stereo not given)	-2.734	11.27	5.911
FC(F)(F)Cn1ccnc1CN1CCCC1c1noc(C2CC2)n1 (stereo not given)	-8.868	-21.49	10.19
CN1CCCC1c1cccc(Cc2ccc(F)cc2)n1 (stereo not given)	-	-12.68 and 16.08	0
CN1CCN(C(CNC(=O)c2ccc(Cl)cc2F)c2cccs2)CC1 (stereo not given)	6.187	-11.3	-1.058
CCCn1ncc(C(=O)N2CCCC(OCc3ccccn3)C2)c1C (stereo not given)	-2.637	1.057	3.478
COc1ccccc1OCc1cc(C(=O)N2CCCCCC2CO)n[nH]1 (stereo not given)	18.93	5.99	2.116
NC(=O)c1ccc(C(=O)N(Cc2ccc(O)cc2)CC2CC2)cc1	0.9166	-11.39	6.863
N#CCCN(CC(F)(F)F)C(=O)c1cc(-n2cccn2)ccn1	-10.01	-11.81	4.972
O=C(O)C(F)(F)F.[H][C@@]12CNC(=O)[C@H](C)[C@]1([H])CN(Cc1cccc(F)c1)C2	-	4.969	-
Cc1ccc(C)c(OC(C)C(=O)Nc2cccnc2)c1 (stereo not given)	-2.422	-62.14	5.435
CN(C)C(=O)C1CCN(C2CCN(CC3CC3)CC2)CC1.O=C(O)C(F)(F)F.O=C(O)C(F)(F)F	-	1.053	-
Cn1cc(N2CC3(CCN(Cc4ccsc4)CC3)OCC2=O)cn1.O=C(O)C(F)(F)F	-	14.88	-
CCc1ncc2c(n1)CN(C(=O)CNC(=O)c1ccccc1)C2	-2.46	-6.493	-2.899
CNC(=O)[C@@H](c1ccccc1)N1CCC[C@H]1C(=O)NCc1ccccn1	-2.184	-	6.931
Oc1ccccc1N1CCN(c2ncnc3sc4c(c23)CCNC4)CC1	3.119	31.45	9.948
CNC(=O)COC1COC2(CCN(Cc3ccncc3F)CC2)C1 (stereo not given)	-	-	11.11
CC(=O)Nc1ccc(OCc2noc(C(=O)N3CCCCC3)n2)cc1	1.489	34.2	7.921
O=C(NCc1cc(-c2ccccc2)no1)NCC1CCCO1 (stereo not given)	2.203	25.55	10
Cc1csc(NCC(=O)c2c[nH]c3ccccc23)n1.I	-	19.28	-
Cc1ccc(CN(Cc2[nH]cnc2C)C2CC(C)(C)NC(C)(C)C2)o1	-	-	5.556
O=C(NCCn1cccc1)C(c1cccnc1)N1CCCC1 (stereo not given)	-2.514	-7.477	-2.809
O=C(NCc1ccc(Br)cc1F)C1(O)CCSCC1	0.1032	2.382	1.657
CCC1c2ccsc2CCN1C(=O)NCCNc1ncccn1 (stereo not given)	-0.07424	38.12	1.527
O=C(c1cc(Cn2ccc3ccccc32)[nH]n1)N1CCOCC1	0.06456	16.46	-4.933
COc1cc2c(cc1CN1CCC3(CCCN(C)C3=O)C1)OCCO2 (stereo not given)	-1.917	-7.763	1.554
Cc1nc2c(c(=O)[nH]1)CN(C(=O)CCC1CCCN(C)C1)C2 (stereo not given)	1.905	14.88	0
O=C(O)C(F)(F)F.OCCN1CCOC2(CCCN(c3ncc(F)cn3)C2)C1 (stereo not given)	-	10.13	-
Cc1nc(N2CCOCC2)nc(C)c1NS(=O)(=O)c1ccccc1	-0.5319	0.4447 and 2.511	1.031
Cc1ccc(S(=O)(=O)NC(=O)COc2ccc(CC#N)cc2)s1	7.685	-18.8	8.081
COc1ccc(CN2CC[C@H]3[C@H]2CCN3C(=O)c2cnn(C)c2)cc1	-6.539	-	3.867
Cc1noc(C2CCN(C(=O)CCCNc3ncccn3)CC2)n1	2.139	12.86	9.677
[H][C@@]12CN(C(=O)CCc3ccccc3)C[C@@]1([H])OCC(=O)N2	-	9.483	-
Fc1ccc(-c2noc(C3COCCO3)n2)cc1F (stereo not given)	-5.054	7.023	4.255
CCOCc1cccc(S(=O)(=O)Nc2ncc(C)s2)c1	0.7282	1.728	1.554
Cc1csc(CN2C[C@@H]3COC[C@]3(COCC(=O)N(C)C)C2)n1	-1.724	-	0
CN(C)S(=O)(=O)N1CCC2(COCc3cnc(-c4ccccc4)nc32)C1 (stereo not given)	-2.413	42.01	0.5405
[H][C@@]12CCN(Cc3ccoc3)C[C@]1([H])[C@@H](CNC(=O)N(C)C)OC2	-	-22.12	-
CCOC(=O)N1CCN(C(=O)c2cc(-c3ccccc3F)on2)CC1	-3.298	-28.98	0.8333
Cc1cc(C)n(CC(C)CNC(=O)[C@@H](C)NC(=O)OC(C)(C)C)n1 (stereo not given in full)	-6.886	15.5	-15.22
O=C(C1CC1)N1CCN2C[C@H](c3ccccc3)[C@@H](CO)[C@H]2C1	-	-	4.494
CN(Cc1ccncc1)C(=O)[C@H]1CSCN1C(=O)OC(C)(C)C	-3.916	18.82	3.429
Cc1cn[nH]c1C1CCCCN1C(=O)CCN1CCCCCC1 (stereo not given)	-3.75	-14.8	2.151
O=C(Nc1ccnn1Cc1ccccc1Cl)C1CCS(=O)(=O)C1 (stereo not given)	-2.673	2.561	11.06
O=C(c1cccc(-n2cnnc2)c1)N1C[C@@H](O)[C@H](N2CCOCC2)C1	-0.5875	10.88	4.52
CCOC(=O)NCCNC(=O)c1cc(Br)cn1C(C)C	6.614	5.274	0.9852
Cc1nc(C(C)C)sc1C(=O)NCCNc1ncccn1	-2.652	14.74	5.202
CCc1cnc(N)nc1N(C)CCc1cnn(C)c1	3.172	29.44	5.941
Cn1ccnc1CN1CCN(c2ncnc3ccsc23)CC1	-2.23	1.603	7.027
CN(C)C(=O)c1cn2cc(-c3ccccc3Cl)n(CC3CC3)c(=O)c2n1	0.4831	-39.17	12